Results are given in words; binding and its absence hold for the method and conditions named. In cells and extracts the contact can be indirect. Some entries that bind do so weakly or less than the wild type. For some assays here: Sequences can lack the tags named with a protein. Each block holds one molecule with its values, some of them ahead of it.
Legend:
[1] = target: T1, Tob (Transducer of ErbB2) (human (endogenous in MCF-7 and SK-BR3)) (UniProt P50616); assay: co-IP; immunoprecipitation with anti-Tob antibody from lysates of MCF-7 (parental or Tob KO) and SK-BR3 cells treated with 10 ng/mL TNF-α for the indicated times; TNEN buffer (20 mM Tris-HCl pH 7.5, 150 mM NaCl, 1 mM EDTA, 1% NP-40), 4 °C; immunoblot
T1 sequence: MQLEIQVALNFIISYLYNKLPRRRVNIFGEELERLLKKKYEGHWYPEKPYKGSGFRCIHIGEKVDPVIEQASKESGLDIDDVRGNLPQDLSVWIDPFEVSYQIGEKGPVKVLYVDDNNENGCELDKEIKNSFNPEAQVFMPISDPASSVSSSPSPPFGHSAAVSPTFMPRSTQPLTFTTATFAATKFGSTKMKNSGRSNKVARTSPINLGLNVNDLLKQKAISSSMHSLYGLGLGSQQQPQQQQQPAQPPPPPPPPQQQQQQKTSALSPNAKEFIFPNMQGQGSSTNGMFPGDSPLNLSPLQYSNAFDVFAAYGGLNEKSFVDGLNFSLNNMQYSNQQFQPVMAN

Amino acid sequences for entries named in this document (tags omitted). Residues count along the entry.
UniProt P06804, residues 80-235: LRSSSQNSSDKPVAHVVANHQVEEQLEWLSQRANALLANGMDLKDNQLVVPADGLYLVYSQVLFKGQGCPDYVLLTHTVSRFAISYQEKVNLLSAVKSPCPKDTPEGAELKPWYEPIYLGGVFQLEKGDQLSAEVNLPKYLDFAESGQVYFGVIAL
UniProt Q13546: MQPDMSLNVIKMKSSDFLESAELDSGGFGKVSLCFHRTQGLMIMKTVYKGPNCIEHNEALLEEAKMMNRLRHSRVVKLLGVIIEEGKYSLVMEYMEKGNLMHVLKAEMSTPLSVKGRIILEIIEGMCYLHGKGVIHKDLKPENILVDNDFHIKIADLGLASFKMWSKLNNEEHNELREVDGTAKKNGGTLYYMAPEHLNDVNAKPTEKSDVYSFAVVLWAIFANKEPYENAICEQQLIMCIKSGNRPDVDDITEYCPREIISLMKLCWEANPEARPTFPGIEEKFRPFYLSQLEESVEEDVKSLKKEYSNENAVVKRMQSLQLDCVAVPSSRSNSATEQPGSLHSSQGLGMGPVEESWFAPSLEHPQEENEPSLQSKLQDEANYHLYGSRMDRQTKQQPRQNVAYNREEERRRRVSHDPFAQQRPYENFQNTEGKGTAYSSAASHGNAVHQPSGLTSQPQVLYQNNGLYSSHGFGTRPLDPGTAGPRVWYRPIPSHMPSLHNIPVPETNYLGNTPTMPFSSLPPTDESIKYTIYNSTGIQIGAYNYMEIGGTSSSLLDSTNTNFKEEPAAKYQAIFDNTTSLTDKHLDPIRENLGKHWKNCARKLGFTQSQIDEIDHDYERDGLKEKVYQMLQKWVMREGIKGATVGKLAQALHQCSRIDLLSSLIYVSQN
UniProt Q9Y6K9: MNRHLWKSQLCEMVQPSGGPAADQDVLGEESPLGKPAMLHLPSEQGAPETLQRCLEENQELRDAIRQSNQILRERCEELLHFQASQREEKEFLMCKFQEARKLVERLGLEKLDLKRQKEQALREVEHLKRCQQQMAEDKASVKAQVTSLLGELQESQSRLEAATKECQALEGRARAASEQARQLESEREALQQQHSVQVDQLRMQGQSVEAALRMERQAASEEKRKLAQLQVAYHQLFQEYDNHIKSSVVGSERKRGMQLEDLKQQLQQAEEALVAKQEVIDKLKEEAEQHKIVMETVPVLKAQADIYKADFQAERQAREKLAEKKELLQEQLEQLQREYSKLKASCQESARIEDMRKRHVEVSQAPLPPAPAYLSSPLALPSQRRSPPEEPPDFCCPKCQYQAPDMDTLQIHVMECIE
UniProt Q96EP0: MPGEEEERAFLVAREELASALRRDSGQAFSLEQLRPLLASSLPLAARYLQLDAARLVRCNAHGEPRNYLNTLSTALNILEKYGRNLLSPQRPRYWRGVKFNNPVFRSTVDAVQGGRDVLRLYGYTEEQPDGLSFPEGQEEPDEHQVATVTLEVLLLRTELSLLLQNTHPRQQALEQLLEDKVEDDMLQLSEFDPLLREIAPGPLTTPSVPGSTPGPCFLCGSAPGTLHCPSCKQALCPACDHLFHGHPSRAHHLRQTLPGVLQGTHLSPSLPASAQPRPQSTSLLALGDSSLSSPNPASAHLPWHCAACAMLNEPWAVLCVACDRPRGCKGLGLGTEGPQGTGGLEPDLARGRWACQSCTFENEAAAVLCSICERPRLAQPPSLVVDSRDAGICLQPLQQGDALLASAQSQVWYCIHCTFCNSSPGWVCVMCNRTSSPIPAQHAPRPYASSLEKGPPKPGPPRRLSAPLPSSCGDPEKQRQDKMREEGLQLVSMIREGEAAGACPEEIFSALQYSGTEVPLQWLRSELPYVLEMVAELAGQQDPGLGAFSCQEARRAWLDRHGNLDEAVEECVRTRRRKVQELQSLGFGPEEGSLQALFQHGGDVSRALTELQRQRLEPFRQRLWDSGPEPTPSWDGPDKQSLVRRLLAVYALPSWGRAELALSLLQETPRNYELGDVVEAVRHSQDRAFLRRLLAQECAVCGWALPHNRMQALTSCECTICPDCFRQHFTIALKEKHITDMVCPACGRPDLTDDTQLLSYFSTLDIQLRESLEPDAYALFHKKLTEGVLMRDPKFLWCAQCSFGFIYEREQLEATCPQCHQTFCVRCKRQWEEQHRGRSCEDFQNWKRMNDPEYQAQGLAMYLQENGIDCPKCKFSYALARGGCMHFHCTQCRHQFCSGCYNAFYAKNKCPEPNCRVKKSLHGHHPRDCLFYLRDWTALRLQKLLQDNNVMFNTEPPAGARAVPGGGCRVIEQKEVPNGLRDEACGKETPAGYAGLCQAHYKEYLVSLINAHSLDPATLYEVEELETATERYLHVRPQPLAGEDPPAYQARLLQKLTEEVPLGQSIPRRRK

[2] = target: T2, C-terminal Myc-tagged Tob (human) (UniProt P50616); assay: co-IP; HEK 293T cells co-transfected for 24 h; immunoprecipitation with anti-Myc tag antibody; TNEN buffer (20 mM Tris-HCl pH 7.5, 150 mM NaCl, 1 mM EDTA, 1% NP-40), 4 °C; immunoblot
T2 sequence: T1 sequence

[3] = target: T2, C-terminal Myc-tagged Tob (human); assay: co-IP; Supplementary Fig. 5c; legend not shown, taken as immunoprecipitation, the only binding method of the paper; cells and bait not told
[4] = target: mouse Flag-tagged TNF-α (mouse) (UniProt P06804); assay: co-IP; TNFR complex I purification: MEFs stimulated with 2 μg/mL Flag-tagged TNF-α, lysed (30 mM Tris-HCl pH 7.5, 120 mM NaCl, 2 mM EDTA, 2 mM KCl, 10% glycerol, 1% Triton X-100), precipitated overnight at 4 °C with anti-Flag M2 beads; immunoblot; only the target purified

binding [2]: binds
Molecule: N-terminal Flag-tagged RIPK1 (pRK5-Flag-human RIPK1) (from UniProt Q13546 1-671)

binding [3]: binds
Molecule: HOIL-1L (pCMV3-Flag8-HOIL-1L) (from UniProt Q9BYM8-1 1-510)

binding [1]: binds
Molecule: NF-κB essential modulator (NEMO) (from UniProt Q9Y6K9 1-419)

binding [3]: binds
B1: SHARPIN (pCMV3-Flag8-SHARPIN) (protein, UniProt Q9H0F6 1-387)
chain: MAPPAGGAAAAASDLGSAAVLLAVHAAVRPLGAGPDAEAQLRRLQLSADPERPGRFRLELLGAGPGAVNLEWPLESVSYTIRGPTQHELQPPPGGPGTLSLHFLNPQEAQRWAVLVRGATVEGQNGSKSNSPPALGPEACPVSLPSPPEASTLKGPPPEADLPRSPGNLTEREELAGSLARAIAGGDEKGAAQVAAVLAQHRVALSVQLQEACFPPGPIRLQVTLEDAASAASAASSAHVALQVHPHCTVAALQEQVFSELGFPPAVQRWVIGRCLCVPERSLASYGVRQDGDPAFLYLLSAPREAPATGPSPQHPQKMDGELGRLFPPSLGLPPGPQPAASSLPSPLQPSWSCPSCTFINAPDRPGCEMCSTQRPCTWDPLAAAST

Further lines, the molecule ahead of its results:

Molecule: Receptor Interacting Protein kinase 1 (RIPK1) (from UniProt Q13546 1-671)
binding [1]: binds

Molecule: HOIP (pCMV3-Flag8-HOIP) (from UniProt Q96EP0 1-1072)
binding [3]: binds

Molecule: human NEMO (pRK5-human NEMO) (from UniProt Q9Y6K9 1-419)
binding [2]: binds

B2: Tob (in the TNFR complex IP experiment) (protein, UniProt Q61471 1-362)
chain: MQLEIQVALNFIISYLYNKLPRRRVNIFGEELERLLKKKYEGHWYPEKPYKGSGFRCIHVGEKVDPVIEQASKESGLDIDDVRGNLPQDLSVWIDPFEVSYQIGEKGPVKVLYVDDSSETGCELDKEIKNSFNPEAQVFMPISDPASSVSSSPSPPFGHSAAVSPTFMPRSTQPLTFTTATFAATKFGSTKMKNSGRSSKVARTSPINLGLTVNVNDLLKQKAISSSVHSLYGLGLGSQQQPQPQPQQQQQQQPSSSQPPPPLPQQQQQQPQQQQQQQQQTSALSPNAKEFIFPNMQGQGSSTNGMFPGDSPLNLSPLQYSNAFDVFAAYGGLNEKSFVDGLNFSLNNMQYSNQQFQPVMAN
modifications: appeared to be polyubiquitylated
binding [4]: binds

— paper PMC12086088
